pEC50: −log10 of the molar value.
System: S5 cells
Experiment: High throughput screen: ATP level (viable cells) in S5 cells with reduced SMN
Format: cell-based, chicken
Details: Gallus gallus, read-out: EC50 (effective concentration for half maximum activity)
Method: In the SMN conditional knockout cell line, S5, the endogenous smn gene is disrupted by homologous recombination, and the SMN protein is stably expressed from an SMN cDNA under the control of a tetracycline (tet)-repressible promoter (Wang and Dreyfuss (2001) supra).
Libraries of compounds were screened against the S5 cell line. […] The cells were incubated for an additional 72 hours and the number of viable cells in each well was determined by measuring the ATP level in the cell lysate, a sensitive assay commonly used to assess cell viability in HTS (Crouch, et al. (1993) J. Immunol. Methods 160:81-88). […] Activity of the compounds was measured as the difference between the sample and the average of the controls.
The activities of all compounds were further examined at concentrations ranging from 0.5 to 20 μM. […] The activity of each compound was determined as a percentage increase of the ATP level, reflecting the number of viable cells, relative to cells treated with an equal volume of DMSO only. […]
After being incubated in medium containing 18 ng/ml tet for 24 hours, S5 cells were dispensed into 96-well plates at 120 μl per well. […] Luminescence was read on a Wallac Victor2 multi-channel plate reader (Perkin-Elmer, Boston, Mass.). […] Data from luminescence readings were analyzed with MICROSOFT® Excel.

With `O=C(CCCN1CCC2(CC1)C(=O)NCN2c1ccccc1)c1ccc(F)cc1` [Compound 29] the pEC50 was 5.40.

Reference: patent US8188070B2, “Method of treating neurological diseases and disorders” (The Trustees of the University of Pennsylvania, priority 2002, dated 2012)
